The assay is described as follows: qHTS Assay for Lipid Storage Modulators in Drosophila S3 Cells.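 On cell number change: cells counted by Cell Tracker Red CMTPX staining in the red channel.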 The settings on record: BODIPY lipid droplet fluorescence, 18-24 h. The method, boiled down: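 Drosophila S3 cells got compounds at several concentrations plus oleic acid (400 uM solution). Laser-scanning cytometry with 488 nm excitation read lipid droplets at 500-530 nm and cells at 575-640 nm. Percent activity was relative to 20 uM Triacsin C.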
On the technique in general: qHTS replaces the single test concentration by a dilution series.

Some of the results follow. Further columns of the screen follow, without active or inactive calls. The list favours compounds with an active or inconclusive main result. Words in brackets tell the shape of the fitted curve; partial curves, single points and poor fits give uncertain potencies.

As to `O=C1NN(c2ccc(F)c(Cl)c2)C(=O)/C1=C\c1cccc(OC(=O)c2cccs2)c1`, the cell number change (measured here: cell count max response, cells fed with added oleic acid) was -17.8%. The AC50 (as a rule, the concentration at which the activity in the assay is half-maximal) reads like this: (measured here: cell number channel AC50, cells fed with added oleic acid) 0.731 µM [falling, partial curve, poor fit]; (measured here: lipid fluorescence (Fed channel) AC50, cells fed with added oleic acid) 23.1 µM [falling, partial curve].

Values taken from PubChem BioAssay AID2685 (National Center for Advancing Translational Sciences (NCATS), 2010).
